The assay addresses DP2 polymerase (large) subunit of Pyrococcus abyssi PolD (Pyrococcus abyssi) (UniProt Q9V2F4). As to the kind of experiment: cryo-EM structure; 1 µM PolD^exo-, 3 µM PCNA and 1.2 µM mismatched primer/template DNA mixed in 20 mM HEPES pH 8, 150 mM NaCl, 2 mM MgCl2, 20 min at RT; single-particle cryo-EM, exo (closed) and intermediate (open) conformers; both purified.

Amino acid sequences for entries named in this document (tags omitted). A change or cut given only in a name is not applied to a line headed by its entry.
UniProt Q9V2F4: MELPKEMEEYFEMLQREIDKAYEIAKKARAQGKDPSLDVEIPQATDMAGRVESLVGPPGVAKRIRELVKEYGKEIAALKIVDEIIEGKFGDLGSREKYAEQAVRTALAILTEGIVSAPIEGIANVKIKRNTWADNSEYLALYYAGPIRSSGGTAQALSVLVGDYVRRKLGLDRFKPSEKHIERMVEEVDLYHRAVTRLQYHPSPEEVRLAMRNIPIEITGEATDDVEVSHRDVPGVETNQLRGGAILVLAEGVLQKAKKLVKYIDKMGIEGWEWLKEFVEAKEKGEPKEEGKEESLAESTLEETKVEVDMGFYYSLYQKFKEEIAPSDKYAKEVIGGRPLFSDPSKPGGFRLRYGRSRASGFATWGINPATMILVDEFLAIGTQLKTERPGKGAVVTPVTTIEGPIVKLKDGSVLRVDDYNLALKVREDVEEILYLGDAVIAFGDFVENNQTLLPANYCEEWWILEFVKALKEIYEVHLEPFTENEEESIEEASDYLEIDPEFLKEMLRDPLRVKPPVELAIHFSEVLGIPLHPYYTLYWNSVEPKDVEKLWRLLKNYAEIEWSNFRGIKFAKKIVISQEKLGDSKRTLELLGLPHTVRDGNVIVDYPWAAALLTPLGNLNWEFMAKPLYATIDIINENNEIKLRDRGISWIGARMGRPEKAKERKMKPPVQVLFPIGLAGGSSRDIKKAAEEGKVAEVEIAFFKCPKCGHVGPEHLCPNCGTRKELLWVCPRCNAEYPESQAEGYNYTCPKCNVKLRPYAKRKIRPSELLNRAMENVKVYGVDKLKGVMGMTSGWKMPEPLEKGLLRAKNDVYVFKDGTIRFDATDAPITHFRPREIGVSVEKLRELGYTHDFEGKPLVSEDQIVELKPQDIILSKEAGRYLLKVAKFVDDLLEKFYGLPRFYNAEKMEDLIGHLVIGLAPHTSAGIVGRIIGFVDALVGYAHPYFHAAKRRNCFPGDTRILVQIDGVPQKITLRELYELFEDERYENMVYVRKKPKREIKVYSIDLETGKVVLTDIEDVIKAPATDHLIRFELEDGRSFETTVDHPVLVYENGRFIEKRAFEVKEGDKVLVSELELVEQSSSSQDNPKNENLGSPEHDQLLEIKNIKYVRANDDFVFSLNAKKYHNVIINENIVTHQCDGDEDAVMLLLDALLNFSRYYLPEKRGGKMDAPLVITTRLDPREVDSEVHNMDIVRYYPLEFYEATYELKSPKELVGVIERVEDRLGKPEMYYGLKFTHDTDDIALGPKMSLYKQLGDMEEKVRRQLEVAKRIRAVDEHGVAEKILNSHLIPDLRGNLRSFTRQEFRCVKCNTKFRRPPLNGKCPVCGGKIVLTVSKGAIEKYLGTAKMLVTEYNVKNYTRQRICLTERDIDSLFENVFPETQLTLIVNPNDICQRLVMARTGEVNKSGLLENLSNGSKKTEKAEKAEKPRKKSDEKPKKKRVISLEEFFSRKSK

Drawing on PMC10721889, this text covers binding for one molecule.

No constants are given. Whether binding was seen depends on the method and setting. Binding calls can cover weak binding; strength is not graded here.

B1: Proliferating Cell Nuclear Antigen (PCNA, the DNA sliding Clamp) (protein, UniProt Q9UYX8 1-249)
chain: MPFEIVFEGAKEFAQLIETASRLIDEAAFKVTEEGISMRAMDPSRVVLIDLNLPASIFSKYEVDGEETIGVNMDHLKKVLKRGKAKETLILRKGEENFLEISLQGTATRTFKLPLIDVEEIEVDLPELPFTAKVVILGDVIKEAVKDASLVSDSMKFIAKENEFTMRAEGETQEVEVKLTLEDEGLLDIEVQEETKSAYGISYLSDMVKGLGKADEVTIKFGNEMPMQMEYYIRDEGRLIFLLAPRVEE
As to B1, the binding entry was “binds”.
